# Measurements from paper PMC8269312.
# No constants are given. Whether binding was seen depends on the method and setting. Binding seen in cells or lysates may run through a third protein. Some binding calls cover weakened binding; strength is not graded here. Tags and fused reporters may be left off the sequences shown.
# T1: NanoLuc-fused GART (trifunctional purine biosynthetic protein adenosine-3) (UniProt P22102)
# T1 sequence: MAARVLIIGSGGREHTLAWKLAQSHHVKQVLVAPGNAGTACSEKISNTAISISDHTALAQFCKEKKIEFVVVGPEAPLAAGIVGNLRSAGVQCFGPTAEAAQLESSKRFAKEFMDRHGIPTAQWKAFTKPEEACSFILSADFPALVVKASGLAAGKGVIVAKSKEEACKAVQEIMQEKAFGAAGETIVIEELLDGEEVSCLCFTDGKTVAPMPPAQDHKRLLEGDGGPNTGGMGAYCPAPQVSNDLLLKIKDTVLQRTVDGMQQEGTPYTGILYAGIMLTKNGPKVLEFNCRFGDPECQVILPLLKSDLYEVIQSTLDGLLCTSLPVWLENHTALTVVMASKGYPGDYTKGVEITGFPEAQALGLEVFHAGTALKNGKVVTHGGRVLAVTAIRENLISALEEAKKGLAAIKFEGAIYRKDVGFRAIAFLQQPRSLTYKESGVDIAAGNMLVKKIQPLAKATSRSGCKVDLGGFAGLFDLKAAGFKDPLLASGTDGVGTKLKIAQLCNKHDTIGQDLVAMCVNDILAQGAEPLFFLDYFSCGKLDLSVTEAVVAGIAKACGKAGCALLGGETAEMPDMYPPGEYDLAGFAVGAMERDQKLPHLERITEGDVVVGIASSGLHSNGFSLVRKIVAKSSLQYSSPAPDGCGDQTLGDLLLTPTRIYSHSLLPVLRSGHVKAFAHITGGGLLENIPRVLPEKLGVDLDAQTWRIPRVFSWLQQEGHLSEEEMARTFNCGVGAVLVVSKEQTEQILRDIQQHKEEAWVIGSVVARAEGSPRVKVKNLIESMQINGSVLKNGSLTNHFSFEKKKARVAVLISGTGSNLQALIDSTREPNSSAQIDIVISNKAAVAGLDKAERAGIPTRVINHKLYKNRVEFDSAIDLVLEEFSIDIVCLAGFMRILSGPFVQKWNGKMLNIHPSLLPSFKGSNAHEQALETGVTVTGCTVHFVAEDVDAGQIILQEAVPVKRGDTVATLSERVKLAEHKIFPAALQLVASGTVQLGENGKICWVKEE
# T2: NanoLuc-fused ITK (interleukin-2-inducible T-cell kinase) (human) (UniProt Q08881)
# T2 sequence: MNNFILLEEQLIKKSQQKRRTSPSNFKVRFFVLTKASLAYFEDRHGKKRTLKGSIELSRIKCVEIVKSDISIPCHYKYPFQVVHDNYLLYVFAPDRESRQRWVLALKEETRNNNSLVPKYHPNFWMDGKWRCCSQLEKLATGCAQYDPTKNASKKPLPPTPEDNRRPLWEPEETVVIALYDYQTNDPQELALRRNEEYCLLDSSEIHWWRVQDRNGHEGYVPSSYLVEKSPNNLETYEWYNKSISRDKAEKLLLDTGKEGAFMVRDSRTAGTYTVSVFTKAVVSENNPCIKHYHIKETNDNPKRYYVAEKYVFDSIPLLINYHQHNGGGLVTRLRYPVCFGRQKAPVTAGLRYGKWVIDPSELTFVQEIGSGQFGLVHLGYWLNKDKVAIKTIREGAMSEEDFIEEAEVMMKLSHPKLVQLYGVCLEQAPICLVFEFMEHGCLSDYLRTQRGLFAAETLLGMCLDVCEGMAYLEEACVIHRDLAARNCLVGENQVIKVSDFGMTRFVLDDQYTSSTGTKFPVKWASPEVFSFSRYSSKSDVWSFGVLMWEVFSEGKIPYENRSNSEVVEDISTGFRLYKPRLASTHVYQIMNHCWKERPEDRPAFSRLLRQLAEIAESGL
# What was measured:
# [1] = biological target: T1, NanoLuc-fused GART (trifunctional purine biosynthetic protein adenosine-3); assay: FRET or BRET; NanoBRET in HEK 293 cells transfected with NanoLuc and HaloTag fusion vectors of ITK and GART, or the HaloTag control vector; NanoBRET Nano-Glo Detection system, GloMax Discover; BRET ratios in milliBRET units (mBU); HaloTag concentration varied
# [2] = biological target: T2, NanoLuc-fused ITK (interleukin-2-inducible T-cell kinase) (human); assay: as above
binding [1],binding [2],Binder
binds,,"HaloTag-fused ITK (interleukin-2-inducible T-cell kinase) (enzyme, UniProt Q08881 1-620) MNNFILLEEQLIKKSQQKRRTSPSNFKVRFFVLTKASLAYFEDRHGKKRTLKGSIELSRIKCVEIVKSDISIPCHYKYPFQVVHDNYLLYVFAPDRESRQRWVLALKEETRNNNSLVPKYHPNFWMDGKWRCCSQLEKLATGCAQYDPTKNASKKPLPPTPEDNRRPLWEPEETVVIALYDYQTNDPQELALRRNEEYCLLDSSEIHWWRVQDRNGHEGYVPSSYLVEKSPNNLETYEWYNKSISRDKAEKLLLDTGKEGAFMVRDSRTAGTYTVSVFTKAVVSENNPCIKHYHIKETNDNPKRYYVAEKYVFDSIPLLINYHQHNGGGLVTRLRYPVCFGRQKAPVTAGLRYGKWVIDPSELTFVQEIGSGQFGLVHLGYWLNKDKVAIKTIREGAMSEEDFIEEAEVMMKLSHPKLVQLYGVCLEQAPICLVFEFMEHGCLSDYLRTQRGLFAAETLLGMCLDVCEGMAYLEEACVIHRDLAARNCLVGENQVIKVSDFGMTRFVLDDQYTSSTGTKFPVKWASPEVFSFSRYSSKSDVWSFGVLMWEVFSEGKIPYENRSNSEVVEDISTGFRLYKPRLASTHVYQIMNHCWKERPEDRPAFSRLLRQLAEIAESGL"
,binds,"HaloTag-fused GART (trifunctional purine biosynthetic protein adenosine-3) (enzyme, UniProt P22102 1-1010) MAARVLIIGSGGREHTLAWKLAQSHHVKQVLVAPGNAGTACSEKISNTAISISDHTALAQFCKEKKIEFVVVGPEAPLAAGIVGNLRSAGVQCFGPTAEAAQLESSKRFAKEFMDRHGIPTAQWKAFTKPEEACSFILSADFPALVVKASGLAAGKGVIVAKSKEEACKAVQEIMQEKAFGAAGETIVIEELLDGEEVSCLCFTDGKTVAPMPPAQDHKRLLEGDGGPNTGGMGAYCPAPQVSNDLLLKIKDTVLQRTVDGMQQEGTPYTGILYAGIMLTKNGPKVLEFNCRFGDPECQVILPLLKSDLYEVIQSTLDGLLCTSLPVWLENHTALTVVMASKGYPGDYTKGVEITGFPEAQALGLEVFHAGTALKNGKVVTHGGRVLAVTAIRENLISALEEAKKGLAAIKFEGAIYRKDVGFRAIAFLQQPRSLTYKESGVDIAAGNMLVKKIQPLAKATSRSGCKVDLGGFAGLFDLKAAGFKDPLLASGTDGVGTKLKIAQLCNKHDTIGQDLVAMCVNDILAQGAEPLFFLDYFSCGKLDLSVTEAVVAGIAKACGKAGCALLGGETAEMPDMYPPGEYDLAGFAVGAMERDQKLPHLERITEGDVVVGIASSGLHSNGFSLVRKIVAKSSLQYSSPAPDGCGDQTLGDLLLTPTRIYSHSLLPVLRSGHVKAFAHITGGGLLENIPRVLPEKLGVDLDAQTWRIPRVFSWLQQEGHLSEEEMARTFNCGVGAVLVVSKEQTEQILRDIQQHKEEAWVIGSVVARAEGSPRVKVKNLIESMQINGSVLKNGSLTNHFSFEKKKARVAVLISGTGSNLQALIDSTREPNSSAQIDIVISNKAAVAGLDKAERAGIPTRVINHKLYKNRVEFDSAIDLVLEEFSIDIVCLAGFMRILSGPFVQKWNGKMLNIHPSLLPSFKGSNAHEQALETGVTVTGCTVHFVAEDVDAGQIILQEAVPVKRGDTVATLSERVKLAEHKIFPAALQLVASGTVQLGENGKICWVKEE"
